# Experimental data as given in PubChem BioAssay AID1439 (NMMLSC, 2008).
# The chains behind the UniProt entries cited, without tags or fusion partners.
# UniProt P09471, whole entry, looked up: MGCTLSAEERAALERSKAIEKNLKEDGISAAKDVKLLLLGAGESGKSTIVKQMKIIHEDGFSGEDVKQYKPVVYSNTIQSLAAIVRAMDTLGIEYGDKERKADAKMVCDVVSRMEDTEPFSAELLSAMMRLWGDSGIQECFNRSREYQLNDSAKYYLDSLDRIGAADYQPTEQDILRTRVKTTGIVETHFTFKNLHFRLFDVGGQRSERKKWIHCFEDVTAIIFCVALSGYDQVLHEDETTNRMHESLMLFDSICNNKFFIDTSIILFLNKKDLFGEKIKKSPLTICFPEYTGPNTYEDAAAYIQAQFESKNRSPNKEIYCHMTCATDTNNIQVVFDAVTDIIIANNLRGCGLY
# Hit rate of the full screen: of about 220,000 compounds, about 770 (0.35%) were called active. The inconclusive results got no clear call from the source; some entries with a clear call stand among them for comparison. No stated cut-off is given here; in the data, active means binding response below about 49% or above about 150%; inconclusive means no clear call, values can overlap the other calls; inactive means in between.
# Target: Guanine nucleotide-binding protein G(o) subunit alpha (Homo sapiens) (UniProt P09471)
# Test: RGS7-Galphao binding modulators, primary screen, biochemical, multiplexed bead flow cytometry (AID 1439);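 further: fluorescent Galphao held in activated GDP-AlF4 state binding bead-coupled RGS7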
# Conditions: at 10 µM, actives lie on both sides
row,SMILES,binding response (% of control)
1,CC1=C/C(=N\S(=O)(=O)c2ccccc2)C(C(C)C)=CC1=O,inconclusive: 128%
2,CCC(=O)NC(=S)Nc1ccc(NC(=O)c2ccco2)c(Cl)c1,inactive: 102%
3,O=[N+]([O-])c1ccc2[nH]c3nc4ccccc4nc3c2c1,inconclusive: -224%
4,CCOc1ccc(N2C(=O)C3C(c4ccc(O)cc4)NC(CCSC)(C(=O)OC)C3C2=O)cc1 (stereo not drawn),inactive: 99.9%
5,S=c1[nH]nc(-c2ccccn2)n1/N=C/c1ccc(-c2ccccc2Br)o1,inconclusive: 92.7%
6,CC(C)CCOc1ccc(C(=O)N2CCCC2C(=O)O)cc1 (stereo not drawn),inactive: 99.2%
7,CCn1c(=O)c2c(nc3n2CCCN3c2cccc(C)c2)n(C)c1=O,inconclusive: 48.5%
8,CC1(C)C(C#N)=C(N)Oc2c1c(=O)oc1ccccc21,inconclusive: 112%
9,Cc1ccc(S(=O)(=O)N(C)C)cc1NC(=O)c1sccc1Cl,inconclusive: 5.02%
10,Nc1ccc(C(O)(C(F)(F)F)C(F)(F)F)cc1,inactive: 91.4%
11,O=C(NCc1ccccn1)C(=O)NCC(c1ccco1)N1CCOCC1 (stereo not drawn),inconclusive: 103%
12,CN1CCN(CC(=O)Nc2c(C#N)cnn2-c2ccccc2)CC1,inconclusive: 93.3%
13,COc1ccc(NC(=O)C(Sc2nnc(-c3ccncc3)n2-c2ccccc2C)c2ccccc2)cc1Cl (stereo not drawn),inactive: 101%
14,c1ccc(CCNc2nc(-c3ccccn3)nc3ccccc23)cc1,inconclusive: 94.8%
15,CCS(=O)(=O)Nc1cccc(C(=O)O)c1,inconclusive: 88.9%
16,CN(CC1CCCO1)S(=O)(=O)c1ccc(C(=O)Nc2nccs2)cc1 (stereo not drawn),inconclusive: 90.4%
17,O=C(O)c1cc(N2N=C(C(F)(F)F)/C(=C/C=C/c3ccco3)C2=O)ccc1Cl,inactive: 93.8%
18,O=C(NCc1ccccc1)C1CCCN(c2nc3ccsc3c(=O)s2)C1 (stereo not drawn),inconclusive: 101%
19,O=C(N/N=C/c1cccs1)c1n[nH]c2c1CCCC2,inconclusive: 112%
20,Cc1cccc(N2C(=O)C(O)=C(C(=O)c3cccs3)C2c2cccc(Oc3ccccc3)c2)n1 (stereo not drawn),inconclusive: 78%
21,CCCNC(=O)c1onc(CSc2cccc(OC)c2)c1C(=O)NCCC,inconclusive: 134%
22,COc1ccc(-c2nnnn2C)cc1S(=O)(=O)NCc1ccccc1,inactive: 98.1%

# Looked up above:
# O=C(NCc1ccccc1)C1CCCN(c2nc3ccsc3c(=O)s2)C1 (stereo not drawn) – binding response (% of control): inconclusive: 101%
# CCS(=O)(=O)Nc1cccc(C(=O)O)c1 – binding response (% of control): inconclusive: 88.9%
# CN(CC1CCCO1)S(=O)(=O)c1ccc(C(=O)Nc2nccs2)cc1 (stereo not drawn) – binding response (% of control): inconclusive: 90.4%
# Cc1cccc(N2C(=O)C(O)=C(C(=O)c3cccs3)C2c2cccc(Oc3ccccc3)c2)n1 (stereo not drawn) – binding response (% of control): inconclusive: 78%
# O=C(O)c1cc(N2N=C(C(F)(F)F)/C(=C/C=C/c3ccco3)C2=O)ccc1Cl – binding response (% of control): inactive: 93.8%

# (continued)

row,SMILES,binding response (% of control)
1,CC(=O)CC(C)(C)Nc1nc2cc([N+](=O)[O-])ccc2o1,inconclusive: 116%
2,CSc1nnc(-c2ccncc2)n1/N=C/c1cn(-c2ccccc2)nc1-c1ccc(Cl)cc1,inconclusive: 77.5%
3,Cc1ccc(NC(=O)CSc2nc(C)c(Cc3ccccc3)c(=O)[nH]2)cc1,active: 21.6%
4,CC(C(=O)OCc1nnc(-c2ccccc2)o1)N1C(=O)C2CCCCC2C1=O (stereo not drawn),inactive: 95%
5,CCOc1ccc(NC(=O)CCC(=O)NNC(=O)COc2ccccc2C)cc1,inactive: 96.9%
6,CC(=O)c1ccccc1NC(=O)CC1(CC(=O)O)CCCCC1,inconclusive: 86.8%
7,NS(=O)(=O)c1cccc(NC(=O)COC(=O)c2cc(Cl)ccc2[N+](=O)[O-])c1,inconclusive: 89.8%
8,CCOC(=O)/C=C/C(=O)OCC(=O)Nc1cccc(Cl)c1Cl,inconclusive: 82%
9,COc1ccc2c(c1)c(C(=O)CN1CCN(c3ccccc3)CC1)c(C)n2C,inconclusive: 173%
10,COc1ccc2c(c1)S(=O)(=O)c1ccccc1N2,inconclusive: 88.7%
11,Cc1ccc(NC(=O)CNCC(c2ccccc2)N(C)C)cc1F (stereo not drawn),inconclusive: 83.5%
12,CC(C)c1ccccc1OCCCCCNCCO,inactive: 109%
13,CC(C)c1ccc(CN2CCN(C(=O)CCl)CC2)cc1,inactive: 104%
14,NNC(=O)C(=O)Nc1ccc(O)cc1,inconclusive: 36.3%
15,O=C(Cc1ccccc1[N+](=O)[O-])NCCC1=CCCCC1,inconclusive: 99.6%
16,CCCCSc1nc2c(cnn2-c2ccccc2)c(=O)n1N,inactive: 129%
17,CC(=O)Oc1cc2c(C(=O)NCc3ccncc3)c(C)oc2c2ccccc12,inconclusive: 100%
18,CCCCCCN(C(=O)CCCCCN1C(=O)NC(c2ccc(-c3ccccc3)cc2)C(C(=O)OCc2ccccc2)=C1C)C(C(=O)NCCCC)c1ccc(-c2ccccc2)cc1 (stereo not drawn),inconclusive: 102%
19,Cc1ccc(S(=O)(=O)NC(=O)N2CCN(Cc3c(F)cccc3Cl)CC2)cc1,inconclusive: 114%
20,CC[N+](CC)(CC#Cc1ccccc1)CC#Cc1ccccc1,inconclusive: 185%
21,COc1cc(C=C2C(=O)c3ccccc3C2=O)cc(OC)c1,inconclusive: 54.9%
22,COc1ccccc1NC(=S)N(CCN(C)C)C(C)c1ccncc1 (stereo not drawn),inconclusive: 81.5%

row,SMILES,binding response (% of control)
1,CCCCNC(=O)NNc1nc(Cl)cc(C)c1C#N,inactive: 101%
2,CCOC(=O)C1(CCOc2ccccc2)CCN(Cc2cc(OC)c3c(c2)OCO3)CC1,inactive: 96.5%
3,CCN(CC)S(=O)(=O)c1ccc(OC)c(NC(=O)c2cccs2)c1,inactive: 101%
4,CC(C)CCN(C(=O)Cc1ccc(Cl)c(Cl)c1)c1c(N)n(Cc2ccccc2)c(=O)[nH]c1=O,inconclusive: 140%
5,CCCCC(=O)Nc1ccc(NC(=S)NC(=O)c2cccs2)cc1OC,inactive: 106%
6,O=C(NC(Cc1c[nH]c2ccccc12)C(=O)O)/C(=C\c1ccc2c(c1)OCO2)NC(=O)c1ccccc1 (stereo not drawn),inconclusive: 81.1%
7,C=CCn1c(SCC(=O)NCC2CCCO2)nnc1-c1ccccc1 (stereo not drawn),inactive: 104%
8,Cc1ccc(O)c(NC(=O)CSc2n[nH]c(C)c2[N+](=O)[O-])c1,inconclusive: 98.5%
9,CC(=O)N1c2ccccc2C(CBr)=CC1(C)C,inconclusive: 659%
10,O=C(Nc1ccc(-c2nc3cccnc3s2)cc1)c1ccc(Cl)nc1,inconclusive: 104%
11,O=C(N/N=C\c1ccc(Cl)s1)C1COc2ccccc2O1 (stereo not drawn),inconclusive: 103%
12,O=C(COc1ccc(S(=O)(=O)N2CCCC2)cc1)Nc1ccc2c(c1)OCCO2,inactive: 82.2%
13,COc1ccccc1C/C(N)=N/OC(=O)c1cccs1,inconclusive: 77.8%
14,CC(C)(C)NNC(=S)Nc1cccc(C(F)(F)F)c1,inconclusive: 43.4%
15,Cc1ccc(-n2c3nc(=O)[nH]c(=O)c-3cc3cc([N+](=O)[O-])ccc32)cc1,inactive: 118%
16,COc1ccc(CNC(=O)NC(C)(C)c2cccc(C(C)(C)NC(=O)NCc3ccc(OC)cc3)c2)cc1,inactive: 97.7%
17,COc1cc(/C=N/NC2=NC(C)(C)Cc3ccccc32)cc(OC)c1OC,inactive: 93.9%
18,COc1ccc(C(=O)/C(C#N)=N/Nc2cccc([N+](=O)[O-])c2)cc1,inactive: 103%
19,COc1ccc(N(CC(=O)Nc2cc(C)ccc2C)S(=O)(=O)c2ccccc2[N+](=O)[O-])c(OC)c1,inactive: 95%
20,COc1ccc(OC)c(S(=O)(=O)N2CCNCC2)c1,inconclusive: 77.8%
21,COCCOC(=O)c1c(NC(=O)CN2c3ccccc3CC2C)sc(C(N)=O)c1C (stereo not drawn),inconclusive: 108%
22,C/C=C\C=C\C(=O)Nc1cccc(C2=NOC3(C2)C[C@H](C(N)=O)N(C(=O)c2ccccc2C(=O)c2ccccc2)C3)c1 (stereo partly drawn),inconclusive: 109%

row,SMILES,binding response (% of control)
1,CCOc1ccc2nc(NC(=O)COc3ccc(N(C)S(=O)(=O)c4ccc(C)cc4)cc3)sc2c1,inconclusive: 83.8%
2,O=C(CCn1nc(-c2ccc(F)cc2)ccc1=O)NCc1ccccc1,inconclusive: 145%
3,CCOc1ccc2nc(SCC(=O)NCc3ccc(OC)c(OC)c3)[nH]c2c1,inactive: 103%
4,CCOP(=O)(OCC)/C(C#N)=C/c1ccc(-c2ccc(F)cc2F)o1,inconclusive: 116%
5,CC(NCc1ccc(S(N)(=O)=O)cc1)C(=O)N1c2ccccc2CC1C (stereo not drawn),inconclusive: 111%
6,NC(=O)CC(NC(=O)c1ccccc1)c1ccc(NCCc2cccc(F)c2)c([N+](=O)[O-])c1 (stereo not drawn),inconclusive: 104%
7,CCn1c(SCC(=O)Nc2ccccc2)nnc1C1CCCCC1,inactive: 99.5%
8,CCOC(=O)C(=CNc1ccc(-c2ccco2)c(Cl)c1)C(=O)OCC,inconclusive: 38.6%
9,Cc1onc(-c2cccc(Cl)c2Cl)c1C(=O)O/N=C(\N)c1ccc([N+](=O)[O-])o1,inconclusive: 338%
10,C[N+](C)(C)CCCN(Cc1ccc2c(c1)OCO2)C(=O)NC1CCCCC1,inconclusive: 124%
11,COc1ccc(CC(=O)N/N=C/C=C/c2ccc3c(c2)OCO3)cc1OC,inconclusive: 106%
12,CCOC(=O)C(=CNc1ccc(S(N)(=O)=O)cc1)C(=O)OCC,inconclusive: 107%
13,S=C1NCN(Cc2cccnc2)CN1c1cccc2ccccc12,inconclusive: 364%
14,C/C(=N\NC(=O)Cn1nc(C)cc1C)c1ccc([N+](=O)[O-])cc1,inconclusive: 112%
15,Cc1ccc(Oc2c(C)nc(-c3ccccc3)[nH]c2=O)cc1,inconclusive: 89.7%
16,CCCn1c(SCC(=O)N2CCCC(C)C2)nnc1-c1cccnc1 (stereo not drawn),inactive: 102%
17,COc1ccc(CC(=O)NNC(=S)NCC2CC2)cc1OC,inconclusive: 70%
18,CN(C)C(=O)N(CCCN1CCOCC1)Cc1cccc2ccccc12,inconclusive: 148%
19,Cc1ccc(-c2nnn(CC(=O)N(c3cnc4ccccc4c3)C(C(=O)NC3CCCC3)c3ccncc3)n2)o1 (stereo not drawn),inconclusive: 109%
20,CS(=O)(=O)Nc1ccc(C(=O)NCC2CCCO2)cc1 (stereo not drawn),inactive: 102%
21,Nc1nc(NCc2ccco2)nc(N2CCCC2)c1[N+](=O)[O-],inconclusive: 72.5%
22,CC(=O)c1csc(COc2cc(Cl)cc(Cl)c2)n1,inconclusive: 88.7%
